{"sequences": {"note": "Protein sequences, listed by entry. Tags and fused reporters are not part of them. Lines headed by an entry give the natural chain unless they say otherwise; changes in a name come on top.", "UniProt P70371": "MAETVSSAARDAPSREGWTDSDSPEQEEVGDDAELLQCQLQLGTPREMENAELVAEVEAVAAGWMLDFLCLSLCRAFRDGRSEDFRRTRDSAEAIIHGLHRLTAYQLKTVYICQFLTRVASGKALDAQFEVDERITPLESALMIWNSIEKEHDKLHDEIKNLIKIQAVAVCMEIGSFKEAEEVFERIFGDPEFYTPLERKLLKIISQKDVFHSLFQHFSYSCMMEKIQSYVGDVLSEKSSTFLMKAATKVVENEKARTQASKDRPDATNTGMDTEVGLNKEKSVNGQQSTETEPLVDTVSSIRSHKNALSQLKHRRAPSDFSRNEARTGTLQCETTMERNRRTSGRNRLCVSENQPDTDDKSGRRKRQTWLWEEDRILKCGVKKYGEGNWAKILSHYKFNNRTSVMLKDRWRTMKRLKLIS"}, "source": "paper PMC5668434", "about": "“Modulation of telomere protection by the PI3K/AKT pathway” (Nature Communications, 2017)", "target": "GST-TRF1 WT (mouse) (UniProt P70371)", "assay": "EMSA", "conditions": "supershift with anti-TRF1 antibody, 1 ug protein; 20 mM HEPES-KOH pH 7.9, 150 mM KCl, 5% glycerol, 4% Ficoll, 1 mM EDTA, 0.1 mM MgCl2, 0.5 mM DTT, 20 ug BSA, 1 ug poly(dI-dC), 30 ul, 20 min, room temperature; recombinant protein; protein details: N-terminal 6xHis and GST; label: 32P 5'-end label (T4 PNK)", "note": "The exact form of at least one protein or probe is not confirmed."}
{"sequence": "GGGTTAGGGTTAGGGTTAGGGTTAGGGTTAGGGTTAGGGTTAGGGCCCCTC (double strand) [ds(TTAGGG)7 telomeric probe]", "values": [{"measurement": "binding result", "result": "binds"}]}
